The record followed here is paper PMC8346560.

Construct, isoform or probe ends are uncertain for at least one entry.

The test system of one data set is Dls1 + Dpb4. As to the kind of experiment: EMSA. The settings on record: 0-160 pmol protein, 1.5 pmol DNA in 50 uL, one shifted band, 20 mM HEPES-NaOH pH 7.5, 0.5 mM EDTA, 0.05% NP-40, 10% glycerol, 60 ug/mL BSA, no added salt …, on ice 10 min, recombinant protein, protein details: C-terminal Strep-tag,C-terminal 6xHis, label: 32P. Background: In EMSA bound probe runs differently from free probe, usually more slowly.

A further data set relates to Dpb3 + Dpb4. As to the kind of experiment: EMSA. The conditions noted are these: 0-20 pmol protein, 1.5 pmol DNA in 50 uL, one shifted band, 20 mM HEPES-NaOH pH 7.5, 0.5 mM EDTA, 0.05% NP-40, 10% glycerol, 60 ug/mL BSA, no added salt stated, on ice 10 min, recombinant protein, protein details: C-terminal Strep-tag,C-terminal 6xHis, label: 32P.

As to “GACGCTGCCGAATTCTACCAGTGCCTTGCTAGGACATCTTTGCCCACCTGCAGGTTCACCC (double strand) [61-mer dsDNA]”, the binding result in the data set on Dls1 + Dpb4 and with Dpb3 + Dpb4 was “binds” in each case.
